No constants are given. Whether binding was seen depends on the method and setting. Binding seen in cells or lysates may run through a third protein. Binding can be weak; no strength is given. Sequences can lack the tags named with a protein.
Biological target: CaErg11^(Y132L F145L)-MYC (C. albicans) (UniProt P10613)
Assay: co-IP; whole cell lysates of Scarv1 cells co-expressing Arv1-HA and Erg11-MYC; 1 mg protein, anti-HA (16B12) or anti-MYC (9E10) 4 hr at 4°C, Protein A agarose; washes with 10 mM HEPES pH 7.5, 200 mM NaCl, 5 mM EDTA, 0.1% Nonidet P-40; western

B1: CaArv1-HA (protein, UniProt Q5ANH2 1-296)
chain: MICIECGYSNIDCLYSKYKSDYIKLSVCPECNKIADKYIEYDSVILFLDILLLKRQAYKHLAYNLTEMEMEIGSSTNFHINDNTNFKFFHTYRKLMKLIFMILSFEVYLTWANEEKLLIHSQLINLIFNQSVVYQYLFFIIKSSLENLILNLSLQLILRLGYKWGQGPQKINGNIRDKELFGYKTSVLLVTTMVSGSIRLFPILMFIWPYDNISITKPLINLIAFINIVEALRVVTSLGYVELILSLAFSIVIRNIVSKSLLVLIVRLFLDFNFTEVYYNEMYQLYSQIQTYIRWI
  binding: binds
